PubChem BioAssay AID493246, Drosophila RNAi Screening Center, 2011

Aim: 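Identify essential fly genes by loss of cell viability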 (primary screen)
Cells: Drosophila Kc and S2R+ cells
Knock-down reagent: long dsRNA against Drosophila genes
Read-out: 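Cell number per well after knock-down, printed as raw plate values; calls were based on per-plate z-scores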
Reading the numbers: Kc cell number and S2R+ cell number: higher = more cells remaining
Call rule: 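Counted as a hit if cell number falls by a z-score of at least 3 within its plate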
In all, the deposit lists about 21,000 reagents; this is an unselected part of those with a known target gene and a result. Over the whole deposit, 429 (2%) are marked active. 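Values are raw and not normalised between plates; calls rest on per-plate z-scores that were not deposited.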 Names joined by + are all predicted targets of the reagent. Not stated in the record: the amount of reagent, the time to read-out.

Target gene,PubChem SID,"Kc cell number, rep 1","Kc cell number, rep 2","S2R+ cell number, rep 1","S2R+ cell number, rep 2",activity call
Eaat1,SID104183113,1.59e6,1.70e6,1.27e6,1.45e6,inactive
CG13806,SID104188133,1.36e6,1.26e6,9.56e5,1.23e6,inactive
CG31974,SID104180314,1.51e6,1.57e6,1.08e6,1.28e6,inactive
Coq4 + frc,SID104190173,1.56e6,1.45e6,1.13e6,1.33e6,inactive
Coq4 + frc,SID104190174,1.56e6,1.78e6,1.39e6,1.60e6,inactive
CG14913,SID104182189,1.56e6,1.76e6,1.37e6,1.48e6,inactive
CG14191,SID104199338,1.72e6,1.49e6,1.08e6,1.25e6,inactive
Jhbp16,SID104194831,1.43e6,1.49e6,9.36e5,9.86e5,inactive
AMPKalpha,SID104198506,5.94e5,,9.50e5,,inactive
Mdr50,SID104187259,1.68e6,1.95e6,1.50e6,1.68e6,inactive
CG34393,SID104180211,1.52e6,1.55e6,1.18e6,1.35e6,inactive
CG34393,SID104180502,1.54e6,1.48e6,1.18e6,1.33e6,inactive
CG7272,SID104190587,1.45e6,1.55e6,1.33e6,1.38e6,inactive
Cht8,SID104184338,1.57e6,1.67e6,1.28e6,4.08e5,inactive
CG7367,SID104182841,1.67e6,1.76e6,1.27e6,1.42e6,inactive
Rh6,SID104196615,1.47e6,1.51e6,1.16e6,1.23e6,inactive
Pcf11,SID104185775,5.12e5,7.46e5,3.41e5,4.86e5,active
r2d2,SID104182806,1.55e6,1.56e6,1.09e6,1.21e6,inactive
CG6701,SID104186799,1.57e6,1.68e6,1.08e6,1.06e6,inactive
Taf8,SID104200155,1.65e6,1.65e6,1.09e6,1.18e6,inactive
Pgant2,SID104180379,1.66e6,1.58e6,1.11e6,1.23e6,inactive
Gos28,SID104196084,1.27e6,1.39e6,1.03e6,1.09e6,inactive
Acp26Aa,SID104181647,1.49e6,1.40e6,1.07e6,1.27e6,inactive
mtSSB,SID104196797,1.17e6,1.20e6,1.16e6,1.31e6,inactive
St3,SID104184297,1.35e6,1.44e6,1.16e6,1.24e6,inactive
nAChRbeta2,SID104196802,1.71e6,1.62e6,1.29e6,1.32e6,inactive
CG2217 + CG42740,SID104193933,5.21e5,,7.81e5,,inactive
CG6220,SID104186761,1.67e6,1.81e6,1.45e6,1.55e6,inactive
CG32452,SID104191373,1.70e6,1.73e6,1.09e6,1.35e6,inactive
GstE11,SID104186718,1.45e6,1.47e6,1.31e6,1.35e6,inactive
Takl1,SID104193235,1.55e6,1.43e6,1.10e6,1.04e6,inactive
Ppi1,SID104195213,4.33e5,,6.63e5,,inactive
CG14982,SID104188232,1.08e6,1.33e6,4.71e5,5.77e5,active
htl,SID104196760,1.55e6,1.58e6,1.26e6,1.30e6,inactive
CalpA,SID104187144,1.52e6,1.59e6,1.14e6,1.26e6,inactive

Continued, starting with the last 8 of the part before.
Target gene,PubChem SID,"Kc cell number, rep 1","Kc cell number, rep 2","S2R+ cell number, rep 1","S2R+ cell number, rep 2",activity call
CG6220,SID104186761,1.67e6,1.81e6,1.45e6,1.55e6,inactive
CG32452,SID104191373,1.70e6,1.73e6,1.09e6,1.35e6,inactive
GstE11,SID104186718,1.45e6,1.47e6,1.31e6,1.35e6,inactive
Takl1,SID104193235,1.55e6,1.43e6,1.10e6,1.04e6,inactive
Ppi1,SID104195213,4.33e5,,6.63e5,,inactive
CG14982,SID104188232,1.08e6,1.33e6,4.71e5,5.77e5,active
htl,SID104196760,1.55e6,1.58e6,1.26e6,1.30e6,inactive
CalpA,SID104187144,1.52e6,1.59e6,1.14e6,1.26e6,inactive
cype,SID104182148,1.39e6,1.39e6,1.08e6,1.25e6,inactive
CG6421,SID104187212,1.60e6,1.60e6,1.24e6,1.43e6,inactive
Vha55,SID104196688,1.53e6,1.56e6,1.20e6,1.31e6,inactive
Gadd45,SID104185825,1.57e6,1.66e6,1.22e6,1.32e6,inactive
RpS25,SID104196629,1.31e6,1.31e6,1.06e6,1.17e6,inactive
Or22c,SID104180558,1.51e6,1.57e6,9.99e5,1.12e6,inactive
CG8613,SID104187014,1.44e6,1.50e6,1.22e6,1.18e6,inactive
CG3740,SID104198300,1.49e6,1.47e6,1.04e6,1.13e6,inactive
Hsp70Aa + Hsp70Ab,SID104201038,1.48e6,1.47e6,7.57e5,8.57e5,inactive
ND-ASHI,SID104198083,1.45e6,1.40e6,9.64e5,1.09e6,inactive
CG3650,SID104184193,1.55e6,1.58e6,1.36e6,1.45e6,inactive
Rab40,SID104199612,1.63e6,1.54e6,1.12e6,1.10e6,inactive
RapGAP1,SID104182085,1.53e6,1.60e6,9.98e5,1.11e6,inactive
RapGAP1,SID104182086,1.67e6,1.54e6,1.22e6,1.38e6,inactive
RapGAP1,SID104183198,1.18e6,1.26e6,6.10e5,9.31e5,inactive
CG14316,SID104194587,1.34e6,1.35e6,1.07e6,1.21e6,inactive
Etl1,SID104182703,1.20e6,1.28e6,1.17e6,1.23e6,inactive
CG42613,SID104193124,1.51e6,1.46e6,1.01e6,1.12e6,inactive
CG42613,SID104194561,1.50e6,1.27e6,1.22e6,1.34e6,inactive
CG42613,SID104195594,1.67e6,1.77e6,1.36e6,1.44e6,inactive
CG33695 + cana,SID104180955,1.49e6,1.50e6,7.55e5,8.60e5,active
CG33695 + cana,SID104183295,1.56e6,1.68e6,1.35e6,1.48e6,inactive
CG18249,SID104195110,1.56e6,1.62e6,1.18e6,1.28e6,inactive
CG13599,SID104194394,1.55e6,1.74e6,9.82e5,1.12e6,inactive
